# The other results are listed elsewhere or left out. Single values of this set are uncertain.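 Many melting curves are irregular; where none melted, Tm was taken as 64 °C.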
# The chains behind the UniProt entries cited, without tags or fusion partners. Where a name states a change or a piece, a line headed by the entry shows the natural chain unless it says otherwise.
# UniProt Q7Z6J9: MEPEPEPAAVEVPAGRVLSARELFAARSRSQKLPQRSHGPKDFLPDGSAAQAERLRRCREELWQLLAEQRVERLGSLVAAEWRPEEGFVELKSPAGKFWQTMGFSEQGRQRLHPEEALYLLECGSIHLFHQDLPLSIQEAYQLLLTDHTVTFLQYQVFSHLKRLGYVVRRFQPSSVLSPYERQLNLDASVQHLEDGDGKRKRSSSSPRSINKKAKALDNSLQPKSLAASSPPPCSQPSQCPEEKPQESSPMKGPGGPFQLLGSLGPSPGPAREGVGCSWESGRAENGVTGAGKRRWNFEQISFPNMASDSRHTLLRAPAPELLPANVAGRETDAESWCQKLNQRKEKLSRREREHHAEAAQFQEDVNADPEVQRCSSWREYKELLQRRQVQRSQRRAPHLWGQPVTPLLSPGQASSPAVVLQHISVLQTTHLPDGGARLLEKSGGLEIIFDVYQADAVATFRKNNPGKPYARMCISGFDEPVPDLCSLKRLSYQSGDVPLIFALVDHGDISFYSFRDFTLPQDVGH
# UniProt Q86UE8, whole entry, looked up: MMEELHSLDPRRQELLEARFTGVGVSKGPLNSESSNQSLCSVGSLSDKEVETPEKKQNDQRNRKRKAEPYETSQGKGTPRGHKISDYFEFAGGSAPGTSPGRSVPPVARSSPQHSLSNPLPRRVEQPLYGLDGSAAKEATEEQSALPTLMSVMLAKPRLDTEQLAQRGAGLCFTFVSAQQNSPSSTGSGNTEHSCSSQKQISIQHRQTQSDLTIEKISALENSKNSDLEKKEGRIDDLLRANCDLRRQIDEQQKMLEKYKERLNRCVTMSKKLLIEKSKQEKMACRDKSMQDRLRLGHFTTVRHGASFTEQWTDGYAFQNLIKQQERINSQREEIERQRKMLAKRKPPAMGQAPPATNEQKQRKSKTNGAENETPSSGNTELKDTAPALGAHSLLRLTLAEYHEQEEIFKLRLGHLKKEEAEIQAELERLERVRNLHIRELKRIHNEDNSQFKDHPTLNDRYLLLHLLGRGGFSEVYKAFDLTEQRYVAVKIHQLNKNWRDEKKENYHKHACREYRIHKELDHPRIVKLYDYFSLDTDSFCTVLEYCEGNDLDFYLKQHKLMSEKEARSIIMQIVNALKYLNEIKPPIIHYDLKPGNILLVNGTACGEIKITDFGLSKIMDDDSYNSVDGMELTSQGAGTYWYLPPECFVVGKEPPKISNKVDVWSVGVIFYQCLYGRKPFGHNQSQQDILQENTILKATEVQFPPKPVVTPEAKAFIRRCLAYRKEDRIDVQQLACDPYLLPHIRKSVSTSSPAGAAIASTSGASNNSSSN
# UniProt Q6Y2X3: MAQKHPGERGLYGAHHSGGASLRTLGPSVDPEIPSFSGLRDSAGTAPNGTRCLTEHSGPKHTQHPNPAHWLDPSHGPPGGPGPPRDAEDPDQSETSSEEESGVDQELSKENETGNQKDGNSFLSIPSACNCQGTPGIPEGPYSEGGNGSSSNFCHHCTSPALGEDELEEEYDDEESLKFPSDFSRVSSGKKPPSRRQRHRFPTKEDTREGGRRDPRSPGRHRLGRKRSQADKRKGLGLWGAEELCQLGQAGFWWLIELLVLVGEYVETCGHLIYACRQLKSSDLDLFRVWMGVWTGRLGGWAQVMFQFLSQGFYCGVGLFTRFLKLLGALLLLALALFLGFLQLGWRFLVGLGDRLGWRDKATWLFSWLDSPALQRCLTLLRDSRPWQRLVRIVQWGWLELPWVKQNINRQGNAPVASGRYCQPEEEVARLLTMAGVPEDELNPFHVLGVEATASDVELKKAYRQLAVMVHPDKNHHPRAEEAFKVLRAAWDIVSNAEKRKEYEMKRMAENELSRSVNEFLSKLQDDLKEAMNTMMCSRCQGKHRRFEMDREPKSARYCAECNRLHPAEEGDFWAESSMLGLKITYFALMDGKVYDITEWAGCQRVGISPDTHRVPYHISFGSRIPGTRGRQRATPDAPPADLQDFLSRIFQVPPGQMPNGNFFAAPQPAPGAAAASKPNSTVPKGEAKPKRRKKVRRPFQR
# UniProt Q7Z2K8: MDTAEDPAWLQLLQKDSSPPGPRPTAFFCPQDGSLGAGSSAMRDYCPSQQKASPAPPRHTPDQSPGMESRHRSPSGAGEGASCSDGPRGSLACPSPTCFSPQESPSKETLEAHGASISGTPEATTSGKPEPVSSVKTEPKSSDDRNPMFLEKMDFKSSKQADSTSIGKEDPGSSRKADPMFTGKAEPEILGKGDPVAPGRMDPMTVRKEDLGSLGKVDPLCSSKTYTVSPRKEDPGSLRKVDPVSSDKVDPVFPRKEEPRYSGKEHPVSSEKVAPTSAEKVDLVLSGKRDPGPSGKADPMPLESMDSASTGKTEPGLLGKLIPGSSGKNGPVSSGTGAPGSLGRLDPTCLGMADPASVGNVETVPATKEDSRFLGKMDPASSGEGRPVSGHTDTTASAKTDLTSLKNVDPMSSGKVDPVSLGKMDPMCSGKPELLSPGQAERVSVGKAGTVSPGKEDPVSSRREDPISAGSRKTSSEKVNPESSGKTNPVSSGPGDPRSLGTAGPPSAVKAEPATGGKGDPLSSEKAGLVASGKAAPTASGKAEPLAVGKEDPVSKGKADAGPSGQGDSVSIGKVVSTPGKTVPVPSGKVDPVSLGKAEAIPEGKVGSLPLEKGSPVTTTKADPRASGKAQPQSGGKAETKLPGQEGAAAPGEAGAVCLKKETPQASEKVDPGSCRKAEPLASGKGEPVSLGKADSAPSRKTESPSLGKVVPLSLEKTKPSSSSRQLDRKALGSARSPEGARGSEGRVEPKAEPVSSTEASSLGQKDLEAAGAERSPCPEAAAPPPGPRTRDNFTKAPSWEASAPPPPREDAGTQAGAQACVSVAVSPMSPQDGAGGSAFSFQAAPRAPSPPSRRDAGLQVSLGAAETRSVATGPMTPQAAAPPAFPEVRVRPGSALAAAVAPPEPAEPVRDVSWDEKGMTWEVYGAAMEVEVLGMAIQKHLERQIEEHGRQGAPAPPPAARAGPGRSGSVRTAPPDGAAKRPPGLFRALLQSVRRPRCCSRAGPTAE
# UniProt Q7L5Y9: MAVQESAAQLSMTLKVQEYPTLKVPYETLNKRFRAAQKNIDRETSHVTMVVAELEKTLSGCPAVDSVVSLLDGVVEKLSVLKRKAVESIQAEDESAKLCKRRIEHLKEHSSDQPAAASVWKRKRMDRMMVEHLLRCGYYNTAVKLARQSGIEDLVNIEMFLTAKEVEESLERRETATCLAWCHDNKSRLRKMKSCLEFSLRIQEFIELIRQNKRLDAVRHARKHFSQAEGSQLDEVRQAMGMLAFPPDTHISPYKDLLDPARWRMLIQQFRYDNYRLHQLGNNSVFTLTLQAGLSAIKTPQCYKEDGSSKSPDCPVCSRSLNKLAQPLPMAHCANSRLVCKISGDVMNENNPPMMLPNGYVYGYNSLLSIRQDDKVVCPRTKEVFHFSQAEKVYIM
# UniProt Q7L5D6: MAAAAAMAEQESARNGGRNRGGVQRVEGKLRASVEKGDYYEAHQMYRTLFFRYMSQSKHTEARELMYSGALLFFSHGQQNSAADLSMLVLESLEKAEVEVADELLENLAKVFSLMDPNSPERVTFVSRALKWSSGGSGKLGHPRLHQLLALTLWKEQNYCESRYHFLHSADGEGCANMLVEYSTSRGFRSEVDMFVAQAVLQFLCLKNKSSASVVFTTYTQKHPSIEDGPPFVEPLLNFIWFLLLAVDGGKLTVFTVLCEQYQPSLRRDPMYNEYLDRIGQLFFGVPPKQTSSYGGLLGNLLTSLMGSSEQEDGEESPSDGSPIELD
# UniProt Q7Z3B4: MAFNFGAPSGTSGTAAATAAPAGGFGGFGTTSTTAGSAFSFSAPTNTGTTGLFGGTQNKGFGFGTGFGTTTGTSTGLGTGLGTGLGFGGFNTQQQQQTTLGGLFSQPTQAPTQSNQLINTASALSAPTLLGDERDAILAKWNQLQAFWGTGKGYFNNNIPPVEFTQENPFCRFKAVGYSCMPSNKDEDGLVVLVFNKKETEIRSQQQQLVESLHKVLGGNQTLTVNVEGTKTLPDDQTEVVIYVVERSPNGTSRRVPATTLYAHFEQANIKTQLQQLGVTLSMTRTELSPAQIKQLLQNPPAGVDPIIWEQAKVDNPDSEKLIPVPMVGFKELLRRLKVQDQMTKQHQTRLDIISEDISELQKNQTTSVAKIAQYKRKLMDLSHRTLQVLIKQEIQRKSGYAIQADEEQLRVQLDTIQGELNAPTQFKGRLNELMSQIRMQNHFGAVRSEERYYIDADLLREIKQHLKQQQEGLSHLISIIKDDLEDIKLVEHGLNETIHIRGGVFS
# UniProt Q6ZNE5, whole entry: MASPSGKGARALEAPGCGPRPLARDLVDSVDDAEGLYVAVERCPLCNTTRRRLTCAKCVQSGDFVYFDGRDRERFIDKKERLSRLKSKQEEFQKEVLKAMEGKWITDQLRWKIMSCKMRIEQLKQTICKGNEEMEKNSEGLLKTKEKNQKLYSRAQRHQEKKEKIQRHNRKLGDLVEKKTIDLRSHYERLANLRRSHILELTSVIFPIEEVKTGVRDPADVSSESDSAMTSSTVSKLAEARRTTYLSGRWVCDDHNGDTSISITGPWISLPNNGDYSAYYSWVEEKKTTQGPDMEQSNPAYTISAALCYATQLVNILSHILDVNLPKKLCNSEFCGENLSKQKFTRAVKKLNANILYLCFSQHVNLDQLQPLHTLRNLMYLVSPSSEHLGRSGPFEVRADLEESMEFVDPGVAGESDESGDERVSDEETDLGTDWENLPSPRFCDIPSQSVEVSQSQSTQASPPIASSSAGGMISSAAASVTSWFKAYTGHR
# UniProt Q76FK4: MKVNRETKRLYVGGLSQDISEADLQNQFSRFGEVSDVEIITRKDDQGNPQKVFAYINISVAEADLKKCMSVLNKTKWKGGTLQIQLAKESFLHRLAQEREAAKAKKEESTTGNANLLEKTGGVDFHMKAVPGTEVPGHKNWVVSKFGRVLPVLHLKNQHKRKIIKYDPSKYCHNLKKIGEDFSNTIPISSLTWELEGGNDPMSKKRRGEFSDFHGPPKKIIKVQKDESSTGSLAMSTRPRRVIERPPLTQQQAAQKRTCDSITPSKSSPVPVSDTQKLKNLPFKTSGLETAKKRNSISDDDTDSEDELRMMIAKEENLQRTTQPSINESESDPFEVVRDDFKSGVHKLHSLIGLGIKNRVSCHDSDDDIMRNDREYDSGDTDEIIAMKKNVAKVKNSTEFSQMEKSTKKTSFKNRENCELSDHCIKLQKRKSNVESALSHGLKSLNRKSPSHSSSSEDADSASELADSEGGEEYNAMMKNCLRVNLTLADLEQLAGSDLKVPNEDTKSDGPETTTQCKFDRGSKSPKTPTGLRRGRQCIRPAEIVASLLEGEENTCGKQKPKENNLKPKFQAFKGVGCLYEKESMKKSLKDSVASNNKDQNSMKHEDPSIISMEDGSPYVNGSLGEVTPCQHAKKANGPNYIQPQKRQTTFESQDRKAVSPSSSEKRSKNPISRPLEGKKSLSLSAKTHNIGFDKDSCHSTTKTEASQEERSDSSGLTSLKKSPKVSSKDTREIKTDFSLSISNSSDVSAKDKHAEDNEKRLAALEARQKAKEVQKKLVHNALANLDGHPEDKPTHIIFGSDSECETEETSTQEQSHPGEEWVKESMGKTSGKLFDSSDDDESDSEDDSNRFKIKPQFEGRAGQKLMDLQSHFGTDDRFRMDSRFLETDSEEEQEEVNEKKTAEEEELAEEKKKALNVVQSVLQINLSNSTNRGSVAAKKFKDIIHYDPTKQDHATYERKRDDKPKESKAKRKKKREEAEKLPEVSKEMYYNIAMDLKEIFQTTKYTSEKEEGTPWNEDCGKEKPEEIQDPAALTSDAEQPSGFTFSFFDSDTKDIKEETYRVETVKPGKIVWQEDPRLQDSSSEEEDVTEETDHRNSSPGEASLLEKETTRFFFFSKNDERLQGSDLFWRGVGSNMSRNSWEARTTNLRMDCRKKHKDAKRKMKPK
# UniProt Q6ZTN6: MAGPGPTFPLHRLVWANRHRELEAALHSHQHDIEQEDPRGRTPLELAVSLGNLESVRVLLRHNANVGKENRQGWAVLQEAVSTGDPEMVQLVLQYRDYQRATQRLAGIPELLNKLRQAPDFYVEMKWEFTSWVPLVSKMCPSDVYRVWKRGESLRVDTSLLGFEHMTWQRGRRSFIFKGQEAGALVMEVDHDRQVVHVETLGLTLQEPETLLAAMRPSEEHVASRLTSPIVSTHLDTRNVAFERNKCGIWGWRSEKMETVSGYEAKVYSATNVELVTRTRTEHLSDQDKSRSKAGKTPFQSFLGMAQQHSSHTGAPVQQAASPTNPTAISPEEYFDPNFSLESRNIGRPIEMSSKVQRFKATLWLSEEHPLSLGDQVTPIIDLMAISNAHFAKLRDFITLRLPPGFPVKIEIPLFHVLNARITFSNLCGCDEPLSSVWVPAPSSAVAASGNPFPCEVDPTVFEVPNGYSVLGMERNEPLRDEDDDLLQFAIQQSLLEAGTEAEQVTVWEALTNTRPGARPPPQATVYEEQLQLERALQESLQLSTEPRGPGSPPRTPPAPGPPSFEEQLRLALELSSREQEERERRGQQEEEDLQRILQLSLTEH
# Compound: CCc1cnccc1C(=O)Nc1cc2c(cc1F)NC(=O)CC2
# Assay: melting temperature shift (DMSO Tm minus MBE1-treated Tm) in cellular thermal proteome profiling; higher = less thermal stabilization by MBE1 (negative = stabilized by MBE1)
# Conditions: A375
Target,melting temperature shift (MBE1 concentration: 100 nM) [°C],melting temperature shift (MBE1 concentration: 1 uM) [°C]
RBBP6 (UniProt Q7Z6E9),-1.67,-1.09
MPRIP (UniProt Q6WCQ1),0.824,0.00611
UniProt Q6RI45,-5.02,0.812
TSEN54 (UniProt Q7Z6J9),0.256,-1.05
UniProt Q86V87,-2.8,-2.99
TLK2 (UniProt Q86UE8),1.6,0.965
UniProt Q6Y2X3,1.34,1.47
TRMT11 (UniProt Q7Z4G4),-0.295,0.258
UniProt Q86UP3,-4.5,-1.58
SH3BP5L (UniProt Q7L8J4),1.33,-0.0671
UniProt Q6ZMZ3,-1.72,-1.34
ATF7IP (UniProt Q6VMQ6),-1.13,-0.295
VPS13B (UniProt Q7Z7G8),-0.0733,1.22
DHX32 (UniProt Q7L7V1),-1.37,-0.609
ZFYVE16 (UniProt Q7Z3T8),-0.537,-0.0402
UniProt Q6ZU80,-1.63,0.57
COPS6 (UniProt Q7L5N1),-0.0537,0.57
UniProt Q7Z699,-0.686,1.39
GPRIN1 (UniProt Q7Z2K8),-1.92,-0.885
MAEA (UniProt Q7L5Y9),-0.165,0.336
GET4 (UniProt Q7L5D6),0.647,-0.58
MON2 (UniProt Q7Z3U7),0.055,-0.421
UniProt Q6ZT62,-0.366,0.159
NUP54 (UniProt Q7Z3B4),0.971,0.415
PATL1 (UniProt Q86TB9),-0.24,0.127
TTC37 (UniProt Q6PGP7),-1.04,-0.848

Target,melting temperature shift (MBE1 concentration: 100 nM) [°C],melting temperature shift (MBE1 concentration: 1 uM) [°C]
ARHGEF18 (UniProt Q6ZSZ5),-0.593,-0.941
UniProt Q86TN4,1.8,0.813
TMTC3 (UniProt Q6ZXV5),0.525,0.891
RANBP10 (UniProt Q6VN20),-0.256,-0.0794
SETD3 (UniProt Q86TU7),-0.563,0.0939
UniProt Q86U42,0.8,0.159
UniProt Q6ZNE5,-0.36,0.644
BCOR (UniProt Q6W2J9),-2.16,-1.33
UniProt Q7L099,-0.696,-1.66
NLRX1 (UniProt Q86UT6),-1.21,1.25
SEZ6L2 (UniProt Q6UXD5),-1.87,0.154
UniProt Q86TS9,3.32,1.25
LARP4 (UniProt Q71RC2),-0.795,-0.476
UniProt Q76FK4,-0.641,-0.826
UniProt Q7Z494,-0.245,-0.507
MED25 (UniProt Q71SY5),0.055,0.733
UniProt Q86V85,0.795,0.534
VPS36 (UniProt Q86VN1),0.055,0.951
UniProt Q6ZRY4,-2.2,-0.849
AACS (UniProt Q86V21),-0.256,-0.288
RSBN1L (UniProt Q6PCB5),-1.08,1.05
NAPRT (UniProt Q6XQN6),-1.47,-0.419
TMEM65 (UniProt Q6PI78),-1.37,-2.4
UniProt Q6ZTN6,-1.57,-1.57
UniProt Q7Z7L7,-0.778,0.677

# In a second layout: entries from further up
Target | melting temperature shift (MBE1 concentration: 100 nM) [°C] | melting temperature shift (MBE1 concentration: 1 uM) [°C]
UniProt Q86TN4 | 1.8 | 0.813
TMTC3 (UniProt Q6ZXV5) | 0.525 | 0.891
RANBP10 (UniProt Q6VN20) | -0.256 | -0.0794
SETD3 (UniProt Q86TU7) | -0.563 | 0.0939
UniProt Q86U42 | 0.8 | 0.159
UniProt Q6ZNE5 | -0.36 | 0.644
BCOR (UniProt Q6W2J9) | -2.16 | -1.33
UniProt Q7L099 | -0.696 | -1.66
NLRX1 (UniProt Q86UT6) | -1.21 | 1.25
SEZ6L2 (UniProt Q6UXD5) | -1.87 | 0.154
UniProt Q86TS9 | 3.32 | 1.25
LARP4 (UniProt Q71RC2) | -0.795 | -0.476
